Source: article PMC7819943, “Rice protein-binding microarrays: a tool to detect cis-acting elements near promoter regions in rice”
The other results are listed elsewhere or left out.

The chains behind the UniProt entries cited, without tags or fusion partners.
UniProt Q0JBA9, entry or part of it: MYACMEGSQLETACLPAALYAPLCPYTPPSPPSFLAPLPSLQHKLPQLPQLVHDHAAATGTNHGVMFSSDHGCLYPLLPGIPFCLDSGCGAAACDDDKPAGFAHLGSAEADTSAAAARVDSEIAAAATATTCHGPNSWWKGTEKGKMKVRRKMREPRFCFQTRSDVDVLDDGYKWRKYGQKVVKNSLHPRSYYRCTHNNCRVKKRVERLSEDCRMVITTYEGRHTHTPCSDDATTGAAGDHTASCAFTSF

These sequences were tested against OsWRKY34 (Oryza sativa, UniProt Q0JBA9 1-250) (assay: protein-binding microarray (RPBM); PBS, 2% BSA, 51.3 ng/ul salmon testes DNA, 50 uM zinc acetate, 200 nM TF, 25 C, 1 h; high values mean tight binding). Conditions: protein: recombinant; tags: N-terminal polyhistidine and DsRed monomer fusion (pET32a); label: CyDye5-dUTP incorporated in the synthesized complementary strand; 3' TTTTT single-stranded linker to array surface; dsDNA, one strand shown.
Method in brief: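 In PBS with 2% BSA, salmon testes DNA and 50 µM zinc acetate, 200 nM protein was incubated on a custom Agilent array at 25 °C for 1 h and then washed off. The array had been made double-stranded by primer extension with Cy5-dUTP and blocked with 2% BSA. The proteins were transcription factors fused N-terminally to polyhistidine and DsRed, expressed in E. coli BL21-CodonPlus and purified on Ni–NTA. The binding signal is per-feature fluorescence intensity (arbitrary units) from an Axon 4000B scanner.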

Sequence | binding signal
AGCTCCCATGCATGTCCATTCCATCTCCAAAAGTAACCACCGGAGTCACCTAGTGCAG | 8100 fluorescence intensity (a.u.)
ATCACCTACCCCTGGTCGACAACTTTTTAACGCTCATTGACGGAGTCACCTAGTGCAG | 14400 fluorescence intensity (a.u.)
GATAATTACAGCCTGACGTGACCCTGCTTGTTTCTTTAATCGGAGTCACCTAGTGCAG | 13000 fluorescence intensity (a.u.)
CTTCGAAAATTGTATTCGAACACCATCTCAACATTAGCATCGGAGTCACCTAGTGCAG | 8600 fluorescence intensity (a.u.)
CGATCACGACTTTTCTCACGTGCACCTATCATTAATTAATCGGAGTCACCTAGTGCAG | 11700 fluorescence intensity (a.u.)
GGTGCCAGTGTCCGTCTCCTCCTACGCCATCGACGCCGCCCGGAGTCACCTAGTGCAG | 8150 fluorescence intensity (a.u.)
CCACTCACTTCTAACTACTTTGTTAATAATCGTGTCCAACCGGAGTCACCTAGTGCAG | 8880 fluorescence intensity (a.u.)
CCTCACTTCTCTTTCCTTCCCTCTCCATTCTCTCTTCTCTCGGAGTCACCTAGTGCAG | 8940 fluorescence intensity (a.u.)
CAACCTCGCAAACACCGATACCCACATGCCAGTTCGCAACCGGAGTCACCTAGTGCAG | 8030 fluorescence intensity (a.u.)
TCACTGCACTCTTCCTCTGCACACACGTTTCAGTCTCTCACGGAGTCACCTAGTGCAG | 9420 fluorescence intensity (a.u.)
AAGGTGTTTGGTTGATTTTTGTTATGTACAATTTTTTGGTCGGAGTCACCTAGTGCAG | 8680 fluorescence intensity (a.u.)
GTACACCACTCCTCTGTCTATTTAATCACAAGCAAATCAACGGAGTCACCTAGTGCAG | 8080 fluorescence intensity (a.u.)
CTCGCCATCTTCGCCGTCCTTGCTTTCTTATATAAATTTTCGGAGTCACCTAGTGCAG | 12200 fluorescence intensity (a.u.)
TACTTGGCTATACTATTAAACTTGCTCTCGCACCATCTTTCGGAGTCACCTAGTGCAG | 9680 fluorescence intensity (a.u.)
TACCAGATGAACTCTTTCCAATAATGTGATTGCCGGTGTTCGGAGTCACCTAGTGCAG | 11100 fluorescence intensity (a.u.)
GTCGTCGCCATCTTCGGTCCACATCTCCACCGACAAGTCCCGGAGTCACCTAGTGCAG | 11600 fluorescence intensity (a.u.)
GCGGAGCGGAGCGTGTCGGGTGGGAGGTGGCAGCTGGCGGCGGAGTCACCTAGTGCAG | 10200 fluorescence intensity (a.u.)
CGGTCAAAACTATTCTCGGCTTACGACATCTCGCAGTCTCCGGAGTCACCTAGTGCAG | 9870 fluorescence intensity (a.u.)
CCGCCGCCATCAAGTCCGCCATCATGACCACCGGTGAGAACGGAGTCACCTAGTGCAG | 8490 fluorescence intensity (a.u.)
CCATTCCATCTCCGGTCTGAGCCGCCGCCGCCGCCTTCTTCGGAGTCACCTAGTGCAG | 8690 fluorescence intensity (a.u.)
GCCTCACCGCCTCAATCCTCATCCGTGTCTAACTCGAACGCGGAGTCACCTAGTGCAG | 9850 fluorescence intensity (a.u.)

Quoted at random: two entries already listed
Sequence | binding signal
GATAATTACAGCCTGACGTGACCCTGCTTGTTTCTTTAATCGGAGTCACCTAGTGCAG | 13000 fluorescence intensity (a.u.)
CCTCACTTCTCTTTCCTTCCCTCTCCATTCTCTCTTCTCTCGGAGTCACCTAGTGCAG | 8940 fluorescence intensity (a.u.)

Additional records follow.

Sequence | binding signal
CTACCCGGCCGACCCCGCCGCCGCCGCCCGAGCCCTCGCCCGGAGTCACCTAGTGCAG | 8980 fluorescence intensity (a.u.)
CTGCTTCTGAATTTCTCCATTCTTTCCAGCAAGCTTACCACGGAGTCACCTAGTGCAG | 10600 fluorescence intensity (a.u.)
TGTATTGTTTGCTGTTAATTAGTTAGTCTTATTCTCACCACGGAGTCACCTAGTGCAG | 9780 fluorescence intensity (a.u.)
TTGACGCTGATCAAACCAAATTAATTACTCTCTCCGTTTCCGGAGTCACCTAGTGCAG | 9890 fluorescence intensity (a.u.)
AGGGGATCGATTTGGGATAGGGTTGTTAGATTTGGGGCTACGGAGTCACCTAGTGCAG | 14000 fluorescence intensity (a.u.)
TTCAATTTTGGCCCATGAGCGTACCTGCAGCCCATTCATACGGAGTCACCTAGTGCAG | 8360 fluorescence intensity (a.u.)
GCACCGTTTAGTTCCTCAAAATTTTCTTTTACCAAAAACACGGAGTCACCTAGTGCAG | 9160 fluorescence intensity (a.u.)
TACCTCTCTTGCTACTATCTCTACTGCAGCTACTAGGGCACGGAGTCACCTAGTGCAG | 9570 fluorescence intensity (a.u.)
CCGGATTATTCTTCCGTTGCCTTGTATCTGTCATTGCTGGCGGAGTCACCTAGTGCAG | 9770 fluorescence intensity (a.u.)
TTCGACATCGATTGATCACTCACATACTATATTTATACATCGGAGTCACCTAGTGCAG | 10000 fluorescence intensity (a.u.)
CGCTGTCCACTGTCCACACCCGCACACGCCGCTTCCCACCCGGAGTCACCTAGTGCAG | 8410 fluorescence intensity (a.u.)
AGTGGTTTGTGCTGCACTGCTTCATGTAACGTGAAATACTCGGAGTCACCTAGTGCAG | 8250 fluorescence intensity (a.u.)
GGGCTTCCTCACTTGTGCCATGTTTGTTGCTCACTCCTTTCGGAGTCACCTAGTGCAG | 8770 fluorescence intensity (a.u.)
GATCTCTTCATTTCCTTGCTGCCATCCTACTGAAGAAGATCGGAGTCACCTAGTGCAG | 8980 fluorescence intensity (a.u.)
GTTCCCATCTTTCTCTCTCTCTCTTTTTTTCTGGAAGAAGCGGAGTCACCTAGTGCAG | 8910 fluorescence intensity (a.u.)
AGGAAAAACTATTCCCGTCCTCTGCTTCTTCATCCTCGTGCGGAGTCACCTAGTGCAG | 8300 fluorescence intensity (a.u.)
CATTCTGCTATATCCTGAGATCTTCCTAGCTATCATCTGCCGGAGTCACCTAGTGCAG | 11000 fluorescence intensity (a.u.)
CGCCGTTGACTTTTTTAAAAATGTTTGACCGTTCCTCTTACGGAGTCACCTAGTGCAG | 20900 fluorescence intensity (a.u.)
CTTTTCTTTTTTTTCTTTTTTCCGATTAATGTGGGAATTTCGGAGTCACCTAGTGCAG | 11200 fluorescence intensity (a.u.)
CCTCGGCTCCCATCCACTACCGTTTGCTACTCCGGCGCCGCGGAGTCACCTAGTGCAG | 10600 fluorescence intensity (a.u.)
GGTCGCCGGATCGCGGGAGGGAGGGAGGGAGGGAGGGAGGCGGAGTCACCTAGTGCAG | 14100 fluorescence intensity (a.u.)
